{"sequences": {"note": "Chains of the proteins cited; added tags and fusions are not shown.", "UniProt P63010": "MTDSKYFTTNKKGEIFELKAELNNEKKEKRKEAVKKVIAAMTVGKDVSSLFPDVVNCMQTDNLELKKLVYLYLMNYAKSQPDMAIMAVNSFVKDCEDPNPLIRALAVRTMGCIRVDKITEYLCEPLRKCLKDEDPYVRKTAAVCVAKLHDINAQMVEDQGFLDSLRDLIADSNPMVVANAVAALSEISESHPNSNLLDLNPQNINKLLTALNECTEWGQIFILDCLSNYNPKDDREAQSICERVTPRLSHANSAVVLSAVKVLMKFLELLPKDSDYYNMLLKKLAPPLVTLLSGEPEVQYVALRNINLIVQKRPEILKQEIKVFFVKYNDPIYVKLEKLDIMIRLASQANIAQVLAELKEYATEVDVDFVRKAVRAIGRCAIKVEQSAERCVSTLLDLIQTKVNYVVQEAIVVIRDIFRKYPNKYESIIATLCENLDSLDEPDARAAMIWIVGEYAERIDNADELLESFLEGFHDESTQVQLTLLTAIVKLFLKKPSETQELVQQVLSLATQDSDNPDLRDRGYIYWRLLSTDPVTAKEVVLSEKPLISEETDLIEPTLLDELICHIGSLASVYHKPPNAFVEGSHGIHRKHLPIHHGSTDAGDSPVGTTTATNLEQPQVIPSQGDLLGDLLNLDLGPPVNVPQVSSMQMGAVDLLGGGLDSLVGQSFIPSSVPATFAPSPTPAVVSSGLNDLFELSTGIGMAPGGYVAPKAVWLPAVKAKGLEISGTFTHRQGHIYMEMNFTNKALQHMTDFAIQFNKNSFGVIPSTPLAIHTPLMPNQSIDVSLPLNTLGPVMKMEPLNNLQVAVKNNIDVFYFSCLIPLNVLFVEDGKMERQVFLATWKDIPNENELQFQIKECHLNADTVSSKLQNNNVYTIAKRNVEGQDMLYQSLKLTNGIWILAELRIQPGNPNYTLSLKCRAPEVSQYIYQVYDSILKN", "UniProt P49407": "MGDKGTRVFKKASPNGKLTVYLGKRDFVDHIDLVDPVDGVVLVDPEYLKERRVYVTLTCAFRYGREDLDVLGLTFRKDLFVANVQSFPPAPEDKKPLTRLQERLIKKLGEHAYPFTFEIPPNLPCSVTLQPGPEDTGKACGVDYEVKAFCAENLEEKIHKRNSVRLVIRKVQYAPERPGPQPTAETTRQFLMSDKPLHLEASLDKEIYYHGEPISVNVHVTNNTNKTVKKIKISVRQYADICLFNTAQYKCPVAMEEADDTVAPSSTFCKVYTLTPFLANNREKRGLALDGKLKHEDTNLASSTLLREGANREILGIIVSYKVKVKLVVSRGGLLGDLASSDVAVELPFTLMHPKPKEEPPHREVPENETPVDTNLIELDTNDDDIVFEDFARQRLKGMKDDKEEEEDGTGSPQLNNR"}, "source": "paper PMC9360436", "key": {"β2-adaptin-YFP [1]": {"target": "β2-adaptin-YFP (UniProt P63010)", "assay": "FRET or BRET; BRET in HEK-293 cells: βarr1-RlucII and β2-adaptin-YFP with rising amounts (0 to 3 µg DNA) of Ib30, no receptor transfected, no ligand"}, "β2-adaptin-YFP [2]": {"target": "β2-adaptin-YFP (UniProt P63010)", "assay": "FRET or BRET; BRET in HEK-293 cells: βarr1-RlucII and β2-adaptin-YFP with V2R^WT or V2R^T360A and Ib-CTL or Ib30; AVP doses, 45 min; lower response for V2R^T360A with Ib-CTL, raised by Ib30"}}, "note": "No constants are given. Whether binding was seen depends on the method and setting. Binding seen in cells or lysates may run through a third protein. Some entries that bind do so weakly or less than the wild type.", "data": [{"substance": "βarr1-RlucII (from UniProt P49407 1-418)", "values": [{"measurement": "binding", "setting": "β2-adaptin-YFP [1]", "value": "binds"}, {"measurement": "binding", "setting": "β2-adaptin-YFP [2]", "value": "binds"}]}]}
